Assay results published in publication PMC7596884.
Results are given in words; binding and its absence hold for the method and conditions named. Binding seen in cells or lysates may run through a third protein. Some entries that bind do so weakly or less than the wild type.

Protein sequences, listed by entry. Tags and fused reporters are not part of them.
UniProt P10275: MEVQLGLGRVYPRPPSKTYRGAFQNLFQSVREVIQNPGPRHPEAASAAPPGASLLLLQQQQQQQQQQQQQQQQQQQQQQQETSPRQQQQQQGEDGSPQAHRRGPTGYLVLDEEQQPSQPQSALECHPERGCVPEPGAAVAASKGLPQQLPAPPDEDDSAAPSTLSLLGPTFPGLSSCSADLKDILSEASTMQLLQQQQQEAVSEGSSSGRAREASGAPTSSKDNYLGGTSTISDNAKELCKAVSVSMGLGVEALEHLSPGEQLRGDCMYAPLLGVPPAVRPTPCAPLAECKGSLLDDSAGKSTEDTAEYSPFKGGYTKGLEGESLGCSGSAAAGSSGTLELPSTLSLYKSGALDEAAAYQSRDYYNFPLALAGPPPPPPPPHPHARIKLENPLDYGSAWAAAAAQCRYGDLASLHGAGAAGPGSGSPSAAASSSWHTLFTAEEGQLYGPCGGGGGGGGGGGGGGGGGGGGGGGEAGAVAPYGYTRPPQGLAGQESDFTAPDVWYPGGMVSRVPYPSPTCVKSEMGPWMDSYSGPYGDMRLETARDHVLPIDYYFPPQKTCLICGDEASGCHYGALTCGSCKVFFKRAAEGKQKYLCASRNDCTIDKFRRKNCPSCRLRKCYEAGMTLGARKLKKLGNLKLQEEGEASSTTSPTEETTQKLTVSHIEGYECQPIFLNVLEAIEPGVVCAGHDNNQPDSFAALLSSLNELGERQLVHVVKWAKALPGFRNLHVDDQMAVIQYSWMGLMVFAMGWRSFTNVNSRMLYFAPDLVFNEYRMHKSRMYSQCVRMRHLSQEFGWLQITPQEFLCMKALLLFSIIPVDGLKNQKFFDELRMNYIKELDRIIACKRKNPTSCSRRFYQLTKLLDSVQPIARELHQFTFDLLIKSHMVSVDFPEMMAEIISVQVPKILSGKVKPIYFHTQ
UniProt P12956: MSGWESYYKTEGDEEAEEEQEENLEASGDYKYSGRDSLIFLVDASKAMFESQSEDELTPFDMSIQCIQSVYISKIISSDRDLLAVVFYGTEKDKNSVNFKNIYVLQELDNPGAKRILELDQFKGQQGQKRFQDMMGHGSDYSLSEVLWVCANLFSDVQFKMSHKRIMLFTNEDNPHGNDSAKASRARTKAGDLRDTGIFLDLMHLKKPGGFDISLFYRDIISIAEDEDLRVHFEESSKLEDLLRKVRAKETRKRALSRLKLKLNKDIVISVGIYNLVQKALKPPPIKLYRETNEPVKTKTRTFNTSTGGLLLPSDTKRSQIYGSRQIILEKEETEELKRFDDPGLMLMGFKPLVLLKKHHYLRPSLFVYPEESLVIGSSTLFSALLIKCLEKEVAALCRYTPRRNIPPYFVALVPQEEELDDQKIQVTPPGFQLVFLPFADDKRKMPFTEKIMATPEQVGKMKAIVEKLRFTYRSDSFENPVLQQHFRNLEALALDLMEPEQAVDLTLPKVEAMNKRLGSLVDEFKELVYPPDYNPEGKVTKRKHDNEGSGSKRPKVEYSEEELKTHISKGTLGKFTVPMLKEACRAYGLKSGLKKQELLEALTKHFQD
UniProt P13010: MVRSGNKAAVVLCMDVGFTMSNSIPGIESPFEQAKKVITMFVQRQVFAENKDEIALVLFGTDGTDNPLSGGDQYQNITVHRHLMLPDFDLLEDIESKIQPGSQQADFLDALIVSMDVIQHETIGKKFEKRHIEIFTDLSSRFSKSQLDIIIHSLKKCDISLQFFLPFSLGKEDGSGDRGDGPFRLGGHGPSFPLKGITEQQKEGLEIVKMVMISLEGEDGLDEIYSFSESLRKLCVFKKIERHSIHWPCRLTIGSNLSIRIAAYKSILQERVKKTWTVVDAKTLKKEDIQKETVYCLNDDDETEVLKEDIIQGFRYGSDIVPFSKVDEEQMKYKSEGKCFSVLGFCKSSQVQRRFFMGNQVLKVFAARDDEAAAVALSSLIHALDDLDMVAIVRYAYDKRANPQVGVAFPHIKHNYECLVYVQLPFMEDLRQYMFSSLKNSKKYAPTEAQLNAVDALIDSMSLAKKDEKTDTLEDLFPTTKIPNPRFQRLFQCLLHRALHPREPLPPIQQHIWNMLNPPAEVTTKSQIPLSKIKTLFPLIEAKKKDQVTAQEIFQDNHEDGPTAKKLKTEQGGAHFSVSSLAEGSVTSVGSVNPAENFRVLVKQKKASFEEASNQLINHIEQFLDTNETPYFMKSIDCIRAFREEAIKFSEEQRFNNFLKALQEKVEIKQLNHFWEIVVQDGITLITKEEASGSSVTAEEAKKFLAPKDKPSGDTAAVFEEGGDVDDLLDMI

How the values were obtained:
[1] = target: androgen receptor (human (endogenous in WM1366, SKMEL28, SKMEL5)) (UniProt P10275); assay: proximity ligation; Duolink kit on fixed, permeabilised melanoma cells with pairs of primary antibodies; puncta per cell counted; cells with or without shRNA-mediated AR gene silencing
[2] = target: androgen receptor (human (endogenous in WM1366, SKMEL28, SKMEL5)) (UniProt P10275); assay: condition: only cells treated with AZD3514 (10 µM for 48 h); proximity ligation; Duolink PLA of AR and Ku70 in WM1366, SKMEL28 and SKMEL5 cells treated with the AR inhibitor AZD3514 (10 µM for 48 h)
[3] = target: androgen receptor (human (endogenous in WM1366, SKMEL28, SKMEL5)) (UniProt P10275); assay: co-IP; WM1366 lysate (mild sonication, extensive DNase I digestion), 500 µg lysate with 4 µg anti-AR (5153S) or anti-RNA pol II (ab26721) in co-IP buffer (50 mM Tris-HCl pH 7.4, 150 mM NaCl, 1 mM EDTA, 1% NP-40, 1% Na-deoxycholate, 0.05% SDS) 8 h at 4°C, Protein A magnetic beads; rabbit IgG as mock; immunoblot

| Substance | binding [1] | binding [2] | binding [3] |
| --- | --- | --- | --- |
| Ku70 (from UniProt P12956 1-609) | binds | no binding | binds |
| Ku80 (from UniProt P13010 1-732) | binds |  |  |
